# Laboratory results from the supplement of paper PMC8728848.
# Some of the results follow.
# B1: SUN4P (Saccharomyces cerevisiae), P53616 (protein)
# chain: MGSSHHHHHHSSGLVPRGSHNGSIYGDLADFSGPYEKFEDGTIPCGQFPSGQGVIPISWLDEGGWSGVENTDTSTGGSCKEGSYCSYACQPGMSKTQWPSDQPSDGRSIGGLLCKDGYLYRSNTDTDYLCEWGVDAAYVVSELSNDVAICLTDYPGTENMVIPTYVQAGDSLPLTVVDQDTYYTWQGLKTSAQYYVNNAGISVEDACVWGSSSSGVGNWAPLNFGAGSSDGVAYLSLIPNPNNGNALNFNVKIVAADDSSTVNGECIYENGSFSGGSDGCTVSVTAGKAKFVLYN
# What was measured:
# Test in all cases: glycan array binding signal (z-score within array); higher = stronger binding
# Conditions in all cases: glycan notation: IUPAC condensed, linker removed; mutation: R276L
# Glc(b1-4)Glc = molecular target: Glc(b1-4)Glc
# Procedure, shortened: (§1)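 Columns mapping to the same glycan were averaged after glycan names were converted to IUPAC-condensed notation. The data come from 3228 arrays in the Consortium for Functional Glycomics database, limited to those with an available protein sequence. Binding is reported as a within-array Z-score averaged across arrays of one protein sequence and across linkers.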
# Glc(b1-6)Glc = molecular target: Glc(b1-6)Glc
# Procedure, shortened: as §1
# GlcA(b1-3)Gal = molecular target: GlcA(b1-3)Gal
# Procedure, shortened: as §1
# GlcA(b1-3)GlcNAc = molecular target: GlcA(b1-3)GlcNAc
# Procedure, shortened: as §1
# GlcA(b1-6)Gal = molecular target: GlcA(b1-6)Gal
# Procedure, shortened: as §1
# [1] = molecular target: GlcA3S(b1-3)Gal(b1-4)GlcNAc(b1-2)Man
# Procedure, shortened: as §1
# [2] = molecular target: GlcA3S(b1-3)Gal(b1-4)GlcNAc(b1-3)Gal(b1-4)Glc
# Procedure, shortened: as §1
# [3] = molecular target: GlcNAc(a1-3)Gal(b1-4)GlcNAc
# Procedure, shortened: as §1
# [4] = molecular target: GlcNAc(a1-4)Gal(b1-3)GlcNAc
# Procedure, shortened: as §1
# [5] = molecular target: GlcNAc(a1-4)Gal(b1-4)GalNAc
# Procedure, shortened: as §1
# [6] = molecular target: GlcNAc(a1-4)Gal(b1-4)GlcNAc
# Procedure, shortened: as §1
# [7] = molecular target: GlcNAc(a1-4)Gal(b1-4)GlcNAc(b1-3)Gal(b1-4)Glc
# Procedure, shortened: as §1
# [8] = molecular target: GlcNAc(a1-4)Gal(b1-4)GlcNAc(b1-3)Gal(b1-4)GlcNAc
# Procedure, shortened: as §1
# [9] = molecular target: GlcNAc(a1-4)Gal(b1-4)GlcNAc(b1-3)Gal(b1-4)GlcNAc(b1-3)Gal(b1-4)GlcNAc
# Procedure, shortened: as §1
# [10] = molecular target: GlcNAc(a1-4)Gal(b1-4)GlcNAc(b1-3)Gal(b1-4)[Fuc(a1-3)]GlcNAc(b1-3)Gal(b1-4)[Fuc(a1-3)]GlcNAc
# Procedure, shortened: as §1
# [11] = molecular target: GlcNAc(a1-6)Gal(b1-4)GlcNAc
# Procedure, shortened: as §1
# [12] = molecular target: GlcNAc(b1-2)Gal(b1-3)GalNAc
# Procedure, shortened: as §1
# [13] = molecular target: GlcNAc(b1-2)Man(a1-3)[GlcNAc(b1-2)Man(a1-6)]Man(b1-4)GlcNAc(b1-4)GlcNAc
# Procedure, shortened: as §1
# [14] = molecular target: GlcNAc(b1-2)Man(a1-3)[GlcNAc(b1-2)Man(a1-6)]Man(b1-4)GlcNAc(b1-4)[Fuc(a1-6)]GlcNAc
# Procedure, shortened: as §1
# [15] = molecular target: GlcNAc(b1-2)Man(a1-3)[GlcNAc(b1-4)][GlcNAc(b1-2)Man(a1-6)]Man(b1-4)GlcNAc(b1-4)GlcNAc
# Procedure, shortened: as §1
# [16] = molecular target: GlcNAc(b1-2)Man(a1-3)[GlcNAc(b1-4)][GlcNAc(b1-2)Man(a1-6)]Man(b1-4)GlcNAc(b1-4)[Fuc(a1-6)]GlcNAc
# Procedure, shortened: as §1
# [17] = molecular target: GlcNAc(b1-2)[GlcNAc(b1-4)]Man(a1-3)[GlcNAc(b1-2)Man(a1-6)]Man(b1-4)GlcNAc(b1-4)GlcNAc
# Procedure, shortened: as §1
# [18] = molecular target: GlcNAc(b1-2)[GlcNAc(b1-4)]Man(a1-3)[GlcNAc(b1-4)][GlcNAc(b1-2)Man(a1-6)]Man(b1-4)GlcNAc(b1-4)GlcNAc
# Procedure, shortened: as §1
# [19] = molecular target: GlcNAc(b1-2)[GlcNAc(b1-4)]Man(a1-3)[GlcNAc(b1-4)][GlcNAc(b1-2)[GlcNAc(b1-6)]Man(a1-6)]Man(b1-4)GlcNAc(b1-4)GlcNAc
# Procedure, shortened: as §1
# [20] = molecular target: GlcNAc(b1-2)[GlcNAc(b1-4)]Man(a1-3)[GlcNAc(b1-4)][GlcNAc(b1-2)[GlcNAc(b1-6)]Man(a1-6)]Man(b1-4)GlcNAc(b1-4)[Fuc(a1-6)]GlcNAc
# Procedure, shortened: as §1
# [21] = molecular target: GlcNAc(b1-2)[GlcNAc(b1-6)]Man(a1-6)[GlcNAc(b1-2)Man(a1-3)]Man(b1-4)GlcNAc(b1-4)GlcNAc
# Procedure, shortened: as §1
# [22] = molecular target: GlcNAc(b1-2)[GlcNAc(b1-6)]Man(a1-6)[GlcNAc(b1-2)Man(a1-3)]Man(b1-4)GlcNAc(b1-4)[Fuc(a1-6)]GlcNAc
# Procedure, shortened: as §1
# [23] = molecular target: GlcNAc(b1-2)[GlcNAc(b1-6)]Man(a1-6)[GlcNAc(b1-4)][GlcNAc(b1-2)Man(a1-3)]Man(b1-4)GlcNAc(b1-4)GlcNAc
# Procedure, shortened: as §1
# GlcNAc(b1-3)Fuc = molecular target: GlcNAc(b1-3)Fuc
# Procedure, shortened: as §1
# GlcNAc(b1-3)Gal = molecular target: GlcNAc(b1-3)Gal
# Procedure, shortened: as §1
# [24] = molecular target: GlcNAc(b1-3)Gal(b1-3)GalNAc
# Procedure, shortened: as §1
# GlcNAc(b1-3)Gal(b1-4)Glc = molecular target: GlcNAc(b1-3)Gal(b1-4)Glc
# Procedure, shortened: as §1
# [25] = molecular target: GlcNAc(b1-3)Gal(b1-4)GlcNAc
# Procedure, shortened: as §1
# [26] = molecular target: GlcNAc(b1-3)Gal(b1-4)GlcNAc(b1-2)Man(a1-3)[GlcNAc(b1-3)Gal(b1-4)GlcNAc(b1-2)Man(a1-6)]Man(b1-4)GlcNAc(b1-4)GlcNAc
# Procedure, shortened: as §1
# [27] = molecular target: GlcNAc(b1-3)Gal(b1-4)GlcNAc(b1-2)Man(a1-3)[GlcNAc(b1-3)Gal(b1-4)GlcNAc(b1-2)Man(a1-6)]Man(b1-4)GlcNAc(b1-4)[Fuc(a1-6)]GlcNAc
# Procedure, shortened: as §1
# [28] = molecular target: GlcNAc(b1-3)Gal(b1-4)GlcNAc(b1-2)[GlcNAc(b1-3)Gal(b1-4)GlcNAc(b1-6)]Man(a1-6)[GlcNAc(b1-3)Gal(b1-4)GlcNAc(b1-2)Man(a1-3)]Man(b1-4)GlcNAc(b1-4)GlcNAc
# Procedure, shortened: as §1
# [29] = molecular target: GlcNAc(b1-3)Gal(b1-4)GlcNAc(b1-3)Gal(b1-4)GlcNAc
# Procedure, shortened: as §1
binder,measurement,setting,value
B1,glycan array binding signal (z-score),Glc(b1-4)Glc,-0.537
same,glycan array binding signal (z-score),Glc(b1-6)Glc,-0.045
same,glycan array binding signal (z-score),GlcA(b1-3)Gal,0.533
same,glycan array binding signal (z-score),GlcA(b1-3)GlcNAc,-1.12
same,glycan array binding signal (z-score),GlcA(b1-6)Gal,-1.14
same,glycan array binding signal (z-score),[1],-0.464
same,glycan array binding signal (z-score),[2],-0.059
same,glycan array binding signal (z-score),[3],-0.683
same,glycan array binding signal (z-score),[4],1.83
same,glycan array binding signal (z-score),[5],-0.143
same,glycan array binding signal (z-score),[6],-0.209
same,glycan array binding signal (z-score),[7],-1.22
same,glycan array binding signal (z-score),[8],-0.664
same,glycan array binding signal (z-score),[9],0.259
same,glycan array binding signal (z-score),[10],1.22
same,glycan array binding signal (z-score),[11],0.826
same,glycan array binding signal (z-score),[12],-0.466
same,glycan array binding signal (z-score),[13],-0.48
same,glycan array binding signal (z-score),[14],1.21
same,glycan array binding signal (z-score),[15],0.523
same,glycan array binding signal (z-score),[16],0.219
same,glycan array binding signal (z-score),[17],-1.13
same,glycan array binding signal (z-score),[18],-0.742
same,glycan array binding signal (z-score),[19],0.09
same,glycan array binding signal (z-score),[20],-1.07
same,glycan array binding signal (z-score),[21],-0.462
same,glycan array binding signal (z-score),[22],-0.52
same,glycan array binding signal (z-score),[23],0.007
same,glycan array binding signal (z-score),GlcNAc(b1-3)Fuc,-0.739
same,glycan array binding signal (z-score),GlcNAc(b1-3)Gal,-0.02
same,glycan array binding signal (z-score),[24],0.424
same,glycan array binding signal (z-score),GlcNAc(b1-3)Gal(b1-4)Glc,0.849
same,glycan array binding signal (z-score),[25],-0.504
same,glycan array binding signal (z-score),[26],1.23
same,glycan array binding signal (z-score),[27],0.672
same,glycan array binding signal (z-score),[28],-0.301
same,glycan array binding signal (z-score),[29],-0.557

# 2 records drawn at random from the list so far:
binder,measurement,setting,value
B1,glycan array binding signal (z-score),GlcA(b1-3)Gal,0.533
same,glycan array binding signal (z-score),[27],0.672
